Measurements taken from patent publication US20160355789A1.
No constants are given. Whether binding was seen depends on the method and setting. Some entries that bind do so weakly or less than the wild type.

Chains of the proteins cited; added tags and fusions are not shown. Residues count along the entry.
UniProt Q9P296: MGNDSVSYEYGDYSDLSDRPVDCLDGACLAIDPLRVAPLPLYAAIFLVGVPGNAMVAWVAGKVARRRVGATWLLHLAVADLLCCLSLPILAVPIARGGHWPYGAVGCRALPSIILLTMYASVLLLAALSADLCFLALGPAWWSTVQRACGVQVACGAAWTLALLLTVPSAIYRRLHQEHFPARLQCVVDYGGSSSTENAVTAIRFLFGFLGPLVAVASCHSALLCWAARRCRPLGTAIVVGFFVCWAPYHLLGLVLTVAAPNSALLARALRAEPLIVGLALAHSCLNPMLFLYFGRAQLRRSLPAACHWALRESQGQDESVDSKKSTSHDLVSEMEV
UniProt P01031, residues 678-751: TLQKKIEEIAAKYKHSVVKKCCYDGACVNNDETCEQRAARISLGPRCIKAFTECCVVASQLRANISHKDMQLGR

Key:
[1] = molecular target: full-length human GPR77 with C-terminal V5 epitope tag, expressed from the gB locus (gB:GPR77 virus / virions) (human) (UniProt Q9P296); assay: labeled ligand probed on the VirD Array
[2] = molecular target: full-length human GPR77 with C-terminal V5 epitope tag, expressed from the gB locus (gB:GPR77 virus / virions) (human) (UniProt Q9P296); assay: Cy5-labeled C5a at 1 µM probed on the VirD Array

complement anaphylatoxin C5a, Cy5-labeled (Abcam) (from UniProt P01031 678-751) (ligand)
binding [1]: binds | binding [2]: binds
